From paper PMC8254717, “Characterization of the DdrD protein from the extremely radioresistant bacterium Deinococcus radiodurans” come the findings set out here.

The target in the series is T1, DdrD (Deinococcus radiodurans R1 (ATCC 13939)) (UniProt Q9RXI7).
T1 sequence (looked up, limits assumed): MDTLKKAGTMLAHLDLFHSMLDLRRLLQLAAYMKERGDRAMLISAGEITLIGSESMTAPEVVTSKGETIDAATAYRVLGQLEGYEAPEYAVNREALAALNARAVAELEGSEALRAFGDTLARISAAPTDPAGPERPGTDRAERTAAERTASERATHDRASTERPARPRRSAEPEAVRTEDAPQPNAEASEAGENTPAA
The experiment in a line: EMSA. The note with it: 5 mM Mg2+, EMSA: 40 mM Tris-HCl pH 7.8, 5 mM MgCl2, 1.5 mM DTT, 50 mM NaCl, 2.5% glycerol, 3.3 nM DNA, 15 min at 4 C, 6% native PAGE in 0.25X TBE with 10% glycerol, recombinant protein, label: 5' Cy5 on strand 1.

Construct, isoform or probe ends are uncertain for at least one entry. A negative result means that nothing was seen under these conditions. Where a protein sequence is shown, tags need not be part of it.

Turning to “CTGTTTAAGAAATTCACCTCGAAAGCAAGCTGATAAACCGATACAATTAAAGGCTCCTTTTGGAGCC / GCTTGCTTTCGAGGTGAATTTCTTAAACAG [oligo 4 (ds with 37-nt 3' tail)]”, the binding result (only faint shifted band, attributed to DdrD-residual ssDNA) was “no binding”.

As for “CTGTTTAAGAAATTCACCTCGAAAGCAAGCTGATAAACCGATACAATTAAAGGCTCCTTTTGGAGCC / GGCTCCAAAAGGAGCCTTTAATTGTATCGG [oligo 3 (ds with 37-nt 5' tail)]”, for the setting “major band DdrD-oligo 3, minor band DdrD-residual ssDNA”, the binding result is on record as “binds”.
